Among the data in the supplement of paper PMC12819154, “High-throughput peptide-centric local stability assay extends protein–ligand identification to membrane proteins, tissues and bacteria” (Nature Structural & Molecular Biology, 2025) are log2 fold change values, retold here.

Amino acid sequences for entries named in this document (tags omitted). A change or cut given only in a name is not applied to a line headed by its entry.
UniProt O14656: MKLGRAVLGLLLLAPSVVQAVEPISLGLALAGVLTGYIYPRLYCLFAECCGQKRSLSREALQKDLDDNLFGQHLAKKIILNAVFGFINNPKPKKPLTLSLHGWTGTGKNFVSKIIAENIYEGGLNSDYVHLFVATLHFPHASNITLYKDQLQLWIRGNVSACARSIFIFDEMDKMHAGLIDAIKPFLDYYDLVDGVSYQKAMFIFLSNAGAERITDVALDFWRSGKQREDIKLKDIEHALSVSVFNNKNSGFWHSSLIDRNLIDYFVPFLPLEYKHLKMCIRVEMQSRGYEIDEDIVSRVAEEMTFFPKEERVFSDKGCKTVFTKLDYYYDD
UniProt C9JQI7: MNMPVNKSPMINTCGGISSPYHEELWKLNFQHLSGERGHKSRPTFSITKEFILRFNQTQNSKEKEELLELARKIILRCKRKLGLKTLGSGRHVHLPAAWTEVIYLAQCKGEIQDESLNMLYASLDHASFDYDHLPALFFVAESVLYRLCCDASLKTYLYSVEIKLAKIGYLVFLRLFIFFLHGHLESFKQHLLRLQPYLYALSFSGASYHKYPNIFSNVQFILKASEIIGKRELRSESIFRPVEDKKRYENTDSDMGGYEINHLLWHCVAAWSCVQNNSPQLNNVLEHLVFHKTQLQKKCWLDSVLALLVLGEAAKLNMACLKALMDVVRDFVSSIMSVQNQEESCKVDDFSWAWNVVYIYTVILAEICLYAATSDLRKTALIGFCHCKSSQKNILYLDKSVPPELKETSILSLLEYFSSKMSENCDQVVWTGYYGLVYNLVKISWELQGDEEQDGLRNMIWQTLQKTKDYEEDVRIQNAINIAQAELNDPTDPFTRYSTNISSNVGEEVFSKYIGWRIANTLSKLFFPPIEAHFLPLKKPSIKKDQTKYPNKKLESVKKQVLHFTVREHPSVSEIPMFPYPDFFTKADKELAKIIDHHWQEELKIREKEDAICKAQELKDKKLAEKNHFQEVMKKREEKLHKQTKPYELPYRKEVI
UniProt O14910: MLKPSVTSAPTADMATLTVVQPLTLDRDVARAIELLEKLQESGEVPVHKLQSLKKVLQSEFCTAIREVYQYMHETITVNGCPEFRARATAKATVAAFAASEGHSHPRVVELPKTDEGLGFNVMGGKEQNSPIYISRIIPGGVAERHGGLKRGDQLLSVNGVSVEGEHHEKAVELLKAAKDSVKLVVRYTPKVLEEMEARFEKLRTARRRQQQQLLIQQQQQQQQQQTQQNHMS
UniProt A8MWD9, whole entry: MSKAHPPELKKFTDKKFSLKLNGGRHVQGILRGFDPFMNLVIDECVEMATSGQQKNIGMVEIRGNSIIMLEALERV
UniProt O15371, whole entry: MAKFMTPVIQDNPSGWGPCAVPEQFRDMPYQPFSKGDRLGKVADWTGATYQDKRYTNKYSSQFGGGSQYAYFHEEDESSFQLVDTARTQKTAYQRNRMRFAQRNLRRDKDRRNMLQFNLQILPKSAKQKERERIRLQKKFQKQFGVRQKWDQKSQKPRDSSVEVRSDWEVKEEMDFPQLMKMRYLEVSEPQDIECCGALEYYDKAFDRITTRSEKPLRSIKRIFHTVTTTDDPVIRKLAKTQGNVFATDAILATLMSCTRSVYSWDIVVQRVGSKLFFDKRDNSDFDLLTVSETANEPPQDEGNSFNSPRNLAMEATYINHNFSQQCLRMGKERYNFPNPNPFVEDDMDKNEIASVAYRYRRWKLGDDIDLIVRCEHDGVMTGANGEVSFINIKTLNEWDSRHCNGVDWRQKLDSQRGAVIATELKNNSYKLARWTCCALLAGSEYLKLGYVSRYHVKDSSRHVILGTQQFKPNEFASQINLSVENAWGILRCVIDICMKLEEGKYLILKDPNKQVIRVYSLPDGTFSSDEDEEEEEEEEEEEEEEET
UniProt B2RPK0: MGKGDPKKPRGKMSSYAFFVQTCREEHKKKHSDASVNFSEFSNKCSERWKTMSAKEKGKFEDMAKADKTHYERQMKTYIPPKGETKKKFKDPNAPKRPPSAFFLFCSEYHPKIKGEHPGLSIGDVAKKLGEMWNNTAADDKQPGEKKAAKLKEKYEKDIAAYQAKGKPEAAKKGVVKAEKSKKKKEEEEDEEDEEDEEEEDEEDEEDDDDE
UniProt O00244: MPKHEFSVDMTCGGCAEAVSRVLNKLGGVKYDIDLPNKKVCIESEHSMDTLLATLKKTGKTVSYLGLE
UniProt O00178: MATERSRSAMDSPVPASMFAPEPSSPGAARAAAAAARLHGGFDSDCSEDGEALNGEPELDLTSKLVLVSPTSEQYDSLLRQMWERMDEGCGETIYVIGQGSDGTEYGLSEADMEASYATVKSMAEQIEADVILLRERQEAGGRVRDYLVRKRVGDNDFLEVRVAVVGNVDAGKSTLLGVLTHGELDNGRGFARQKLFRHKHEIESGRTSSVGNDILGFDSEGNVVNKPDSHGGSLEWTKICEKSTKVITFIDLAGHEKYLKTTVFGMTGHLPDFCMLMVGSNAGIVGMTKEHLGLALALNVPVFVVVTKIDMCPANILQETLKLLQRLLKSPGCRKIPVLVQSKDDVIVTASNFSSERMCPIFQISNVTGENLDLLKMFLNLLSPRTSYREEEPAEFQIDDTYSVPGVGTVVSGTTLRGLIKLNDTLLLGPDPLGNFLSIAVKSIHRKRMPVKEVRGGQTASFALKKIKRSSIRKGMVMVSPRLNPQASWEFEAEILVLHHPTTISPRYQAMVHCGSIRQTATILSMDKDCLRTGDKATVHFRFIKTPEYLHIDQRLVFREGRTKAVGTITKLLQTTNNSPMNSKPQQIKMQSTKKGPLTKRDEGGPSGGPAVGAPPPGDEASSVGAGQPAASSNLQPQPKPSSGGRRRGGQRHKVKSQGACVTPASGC
UniProt O15360: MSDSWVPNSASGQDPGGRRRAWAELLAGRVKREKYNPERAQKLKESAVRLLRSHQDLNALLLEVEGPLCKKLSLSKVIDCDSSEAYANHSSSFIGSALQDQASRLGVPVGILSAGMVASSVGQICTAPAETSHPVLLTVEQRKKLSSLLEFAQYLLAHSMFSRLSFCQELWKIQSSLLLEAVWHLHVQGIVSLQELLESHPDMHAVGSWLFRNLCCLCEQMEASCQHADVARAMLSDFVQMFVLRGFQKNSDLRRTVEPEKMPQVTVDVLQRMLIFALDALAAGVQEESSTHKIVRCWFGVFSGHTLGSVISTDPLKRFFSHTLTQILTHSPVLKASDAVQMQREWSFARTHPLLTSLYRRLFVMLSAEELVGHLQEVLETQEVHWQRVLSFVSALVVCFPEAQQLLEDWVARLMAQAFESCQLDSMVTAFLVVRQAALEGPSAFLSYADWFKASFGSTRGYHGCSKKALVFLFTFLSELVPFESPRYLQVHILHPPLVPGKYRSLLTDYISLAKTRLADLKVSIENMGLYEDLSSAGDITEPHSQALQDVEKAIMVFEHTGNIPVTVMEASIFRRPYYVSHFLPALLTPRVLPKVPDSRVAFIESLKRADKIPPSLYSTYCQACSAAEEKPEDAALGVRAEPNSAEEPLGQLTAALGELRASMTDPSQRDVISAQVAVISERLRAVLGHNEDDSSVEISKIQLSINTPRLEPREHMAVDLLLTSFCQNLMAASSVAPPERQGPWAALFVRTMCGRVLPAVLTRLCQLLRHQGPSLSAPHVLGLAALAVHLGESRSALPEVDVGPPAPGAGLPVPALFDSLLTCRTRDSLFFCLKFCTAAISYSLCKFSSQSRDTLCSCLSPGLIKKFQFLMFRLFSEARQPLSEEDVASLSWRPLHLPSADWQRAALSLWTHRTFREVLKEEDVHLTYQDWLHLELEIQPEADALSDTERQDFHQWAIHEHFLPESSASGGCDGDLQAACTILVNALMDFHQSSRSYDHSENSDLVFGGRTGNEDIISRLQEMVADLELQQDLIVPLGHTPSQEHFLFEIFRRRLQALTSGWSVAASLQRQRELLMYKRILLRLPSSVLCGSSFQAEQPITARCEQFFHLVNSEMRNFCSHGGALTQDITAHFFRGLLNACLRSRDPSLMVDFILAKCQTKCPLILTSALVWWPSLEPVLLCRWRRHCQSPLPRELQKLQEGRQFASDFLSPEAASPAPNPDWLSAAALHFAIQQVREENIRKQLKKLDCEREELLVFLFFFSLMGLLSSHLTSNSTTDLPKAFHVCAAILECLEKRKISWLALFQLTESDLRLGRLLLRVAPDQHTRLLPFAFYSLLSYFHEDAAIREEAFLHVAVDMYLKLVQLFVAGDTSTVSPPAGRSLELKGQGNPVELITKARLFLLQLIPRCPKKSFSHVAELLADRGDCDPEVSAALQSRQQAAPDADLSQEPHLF

Some of the results follow. Most values lie at the level of the controls, where differences are scatter.

Compound in the experiment: CN[C@@H]1C[C@H]2O[C@@](C)([C@@H]1OC)n1c3ccccc3c3c4c(c5c6ccccc6n2c5c31)C(=O)NC4 [staurosporine]
In words: log2 fold change of tryptic peptide abundance, ligand vs vehicle (limited proteolysis) (log2 ratio); higher = more trypsin-susceptible (destabilized). Conditions: ligand concentration: 20 uM; sample: K562 cleared lysate; digestion: 4 min, 22 C (HT-PELSA RT4min, Orbitrap Astral).
As for “TOR1A (peptide sequence: LYCLFAECCGQKR, peptide start residue: 42) (UniProt O14656)”, the log2 fold change was found to be 0.532.
Next, “UniProt C9JQI7 (peptide sequence: EKEDAICK, peptide start residue: 608)”: 0.0188.
Consider “LIN7A (peptide sequence: ATVAAFAASEGHSHPR, peptide start residue: 77) (UniProt O14910)”, for which the log2 fold change is -0.19.
In the case of “CBX4 (peptide sequence: RREEEVSGVSDPQPQDAGSR, peptide start residue: 327) (UniProt O00257)”, the log2 fold change is -0.323.
Next, “SNRPGP15 (peptide sequence: AHPPELKK, peptide start residue: 4) (UniProt A8MWD9)”: 0.123; “EIF3D (peptide sequence: DMPYQPFSKGDRLGK, peptide start residue: 27) (UniProt O15371)”: -0.23; “UniProt B2RPK0 (peptide sequence: WKTMSAKEK, peptide start residue: 49)”: 0.303.
Then “ATOX1 (peptide sequence: PKHEFSVDMTCGGCAEAVSR, peptide start residue: 2) (UniProt O00244)”, with -0.505; and “GTPBP1 (peptide sequence: QTATILSMDKDCLR, peptide start residue: 520) (UniProt O00178)”, with -0.21; and “FANCA (peptide sequence: DSLFFCLK, peptide start residue: 828) (UniProt O15360)”, with -0.427.
